Laboratory results from PMC10901097, “Vanillin derivatives as antiamnesic agents in scopolamine-induced memory impairment in mice” (Heliyon, 2024).

Tested on: scopolamine-induced memory impairment in mice
Test: Novel object recognition test (NORT), scopolamine-induced amnesia
Format: in vivo, Albino mice
Description: Albino mice (20–23 g b. w.) were brought from National Institute of Health, Islamabad, Pakistan, and the mice were retained in animal house at University of Malakand at Department of Pharmacy for acclimation. Normal pellet diet and water were provided to all the animals and were kept for 12 h of light-dark cycle under normal laboratory conditions (temperature in a range of 25 ± 2 °C, humidity of 56–66%). All protocols employed were approved from the Ethical Committee vide notification Pharm/EC-QRE/10–31/25 as per approved “Animal Bye-Laws 2008, Scientific Procedures Issue-I of the Malakand University” and the UK animal scientific procedure act (1986).
After acclimatization, the animals were grouped into different groups consisting of 6 animals each. […] It also can induce amyloid β deposition, oxidative stress, synaptic dysfunction, and learning/memory impairment in experimental animals. […] The treatment was carried out continuously for 7 days and after treatment schedule, the animals were subjected to behavioural study using Y-maze and NORT.
NORT was used to assess the effect of vanillin derivatives on memory in mice model. The apparatus employed in this test measures 40 cm wide, 40 cm long, and 66 cm tall. NORT entails a two-day habituation period, followed by a two-day training session and finally a testing or experimental period. During habituation, an empty box was used, two identical objects were placed in two corners of the box during training, and one unique object was replaced during testing as shown in Fig. 3. To test long-term memory in mice, a five-day washout period was provided before the NORT. The time spent in each phase was manually documented using a stopwatch.
Fig. 3 Procedures for novel object recognition (NORT). The three phases of the test are shown. In NORT, object identity is changed between training and test; object location is remained unchanged.

CN1[C@@H]2C[C@@H](OC(=O)[C@H](CO)c3ccccc3)C[C@H]1[C@@H]1O[C@@H]12 [Scopolamine]
time spent with the familiar object F in NOR test (scopolamine group compared with control group treated with galantamine, P < 0.001): significant increase
latency time to discover familiar object (F) in NOR test (scopolamine group compared with control group treated with galantamine, p < 0.001): significant increase
discrimination index in NOR test (scopolamine-treated group): 1.43%
